Some of the results follow. The main result of the screen is listed elsewhere. These columns were measured beside it and carry no call. Compounds called inactive in the main read-out are mostly missing here. Potencies come from curve fits of mixed quality, noted in brackets.
Assay: qHTS Assay to Find Inhibitors of Chronic Active B-Cell Receptor Signaling
Details: ABC-DLBCL IkBa-CBG/CBR reporter, luminescence ratio (green luciferase fused to IkBa over red control in TMD8 lymphoma cells), 4 h
In short: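 Doxycycline induced both beetle luciferases in TMD8 lymphoma cells; IKK-driven degradation limits the IkappaBalpha-fused green signal, while red luminescence normalises for cell number and nonspecific effects. Compounds tested up to 46 uM, 4 hrs.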

[1] = measured here: CBR red luminescence, cell number
[2] = measured here: IkBa-CBG green luminescence

Row | SMILES | AC50 [1] | AC50 [2]
1 | CSC1=NCCN1C(=O)c1c(F)cccc1Cl | 0.146 µM [rising, full curve, poor fit] | –
2 | Cc1ccc(S(=O)(=O)/N=C(/Nc2ccc([N+](=O)[O-])cc2[N+](=O)[O-])c2ccccc2)cc1 | 16.4 µM [rising, single point] | –
3 | CCCCn1c(=O)[nH]c(=O)c2c1nc(-c1ccccc1F)n2Cc1ccccc1OC | 22.4 µM [falling, single point] | –
4 | CCc1nnc(NC(=O)c2cc3ccccc3oc2=O)s1 | 0.92 µM [rising, full curve, poor fit] | –
5 | CCOC(=O)c1ccc(NC(=O)c2ccc3c(c2)OCO3)cc1 | 5.17 µM [falling, partial curve, poor fit] | –
6 | CCOc1ccccc1C1C(C#N)=C(N)Oc2n[nH]c(CC)c21 (stereo not drawn) | 3.55 µM [falling, partial curve] | –
7 | Cc1cc([N+](=O)[O-])nn1CC(=O)Nc1ccc(F)cc1 | 14.1 µM [falling, single point] | –
8 | Cn1ccnc1Sc1ccccc1[N+](=O)[O-] | 35.5 µM [falling, single point] | –
9 | O=C(CSc1nc2ccccc2c(=O)n1NC(=O)c1ccccc1)c1ccccc1 | 14.1 µM [falling, single point] | –
10 | O=C(CSC(=S)N1CCCCC1)c1c(F)cccc1F | 20 µM [falling, partial curve] | 35.5 µM [falling, single point]
11 | CCCCC(=O)Nc1cccc(NC(=O)c2ccc(Br)cc2)c1 | 3.16 µM [falling, partial curve, poor fit] | –
12 | Oc1ccc(C=Nc2ccccc2-c2nc3ccccc3[nH]2)c(O)c1 | 29.1 µM [falling, partial curve, poor fit] | –
13 | COc1ccc(Cl)cc1NC(=O)Nc1ccc(Br)cn1 | 0.116 µM [rising, full curve] | –
14 | COc1cc(/C=C/c2cc(C(=O)O)c3ccccc3n2)ccc1OC(F)F | 0.501 µM [falling, full curve] | –
15 | O=C(CN1C(=O)NC2NC(=O)NC21)NN=C1CCCC1 (stereo not drawn) | 6.51 µM [rising, single point] | –
16 | CNC(=O)CSc1nnc(-c2cccc(S(=O)(=O)N3CCOCC3)c2)n1-c1ccc(F)cc1 | 23.1 µM [falling, partial curve, poor fit] | –
17 | O=C(O)c1cccc(NC(=S)NCc2ccccc2)c1 | 11.2 µM [falling, partial curve] | –
18 | Cc1csc(NC(=O)Cc2c[nH]c3ccccc23)n1 | 35.5 µM [falling, single point] | –
19 | O=C(Cc1ccccn1)Nc1ccccc1 | 28.2 µM [rising, single point] | –
20 | O=C(OCc1ccccc1F)c1ccc2c(c1)-c1ccccc1C2=O | 0.0891 µM [falling, full curve, poor fit] | –
21 | Cc1sc(NC(=O)CN(C)C2CCCCC2)nc1-c1ccc2c(c1)CCN2S(=O)(=O)c1ccccc1 | 1.3 µM [falling, full curve, poor fit] | –
22 | CCCn1nnc(NC(=O)c2cccc(OCC)c2)n1 | 0.517 µM [falling, full curve, poor fit] | –

Row | SMILES | AC50 [1] | AC50 [2]
23 | Cc1cc(N2CCOCC2)ccc1/C=C1\NC(=O)N(CC(=O)Nc2ccccc2C)C1=O | 2.91 µM [rising, single point] | –
24 | COc1ccccc1NC(=S)N/N=C/c1cccc(C)c1 | 5.17 µM [falling, partial curve] | –
25 | O=C(NNc1nc(N2CCOCC2)nc(N2CCOCC2)n1)Nc1ccc(Cl)cc1 | 7.94 µM [rising, partial curve, poor fit] | –
26 | Cc1cc(C)cc(NC(=O)CSc2nc3c(c(=O)n2C)SC(C)C3)c1 (stereo not drawn) | 6.51 µM [falling, single point] | –
27 | N#Cc1c(-c2ccccc2)nc(N2CCN(Cc3ccccc3)CC2)[nH]c1=O | 35.5 µM [falling, partial curve, poor fit] | –
28 | Cc1cccc(C2Nc3ccccc3C(=O)N2NC(=O)c2ccc([N+](=O)[O-])cc2)n1 (stereo not drawn) | 29.1 µM [rising, single point] | –
29 | Cc1nc(N/N=C/c2ccc(O)cc2O)cc(N2CCOCC2)n1 | 12.6 µM [falling, partial curve, poor fit] | –
30 | C[C@@H]1CN([C@@H](C)CO)C(=O)c2cccc(NC(=O)C3CCCCC3)c2O[C@@H]1CN(C)Cc1ccc(Cl)c(Cl)c1 | 20.6 µM [falling, single point] | –
31 | CC(C)CSc1nnc2c(n1)[nH]c1ccccc12 | 14.6 µM [falling, single point] | –
32 | C=C(C)COc1ccc(-c2n[nH]c(C)c2-c2ccccc2OC)c(O)c1 | 12.6 µM [rising, partial curve, poor fit] | –
33 | Cc1ccc(NC(=O)c2ccc(COc3ccccc3)o2)nc1 | 22.4 µM [falling, single point] | –
34 | Cc1ccc(C(=O)N/N=C(\CC(C)C)c2ccccc2)cc1 | 29.1 µM [falling, single point] | 23.1 µM [falling, single point]
35 | O=[N+]([O-])c1ccc(N/N=C/c2ccc(OCc3cccc4ccccc34)cc2)nc1 | 10 µM [rising, partial curve, poor fit] | –
36 | O=c1[nH]c(SCc2ccc(Cl)cc2)nc2ccccc12 | 4.47 µM [rising, partial curve, poor fit] | –
37 | CC(C)c1cc(NC(=O)CCl)on1 | 15.8 µM [falling, single point] | –
38 | Cc1cc(C=O)c(C)n1-c1ccc(NC2CCCCC2)c([N+](=O)[O-])c1 | 22.4 µM [falling, single point] | –
39 | COc1cccc(-c2cc(C(=O)NC3CCCCC3)no2)c1 | 0.708 µM [falling, full curve] | –
40 | COc1ccccc1C(=O)NCC(=O)N/N=C/c1ccncc1 | 20 µM [rising, single point] | –
41 | COc1ccc(C2c3ccc(O)cc3Oc3ncn(CCN4CCOCC4)c(=N)c32)cc1OC (stereo not drawn) | 35.5 µM [rising, single point] | 10 µM [falling, partial curve, poor fit]
42 | CCc1ccc(CNC(=O)CN2C(=O)CSc3ccc(S(=O)(=O)N4CCOCC4)cc32)cc1 | 25.1 µM [rising, single point] | –
43 | COc1cc(C(=O)Nc2ccc3c(c2)CCN3C(C)=O)cc(OC)c1OC | 35.5 µM [rising, single point] | 22.4 µM [falling, single point]
44 | CCOC(=O)c1nc(NCCc2ccccc2)sc1C | 2.82 µM [rising, partial curve, poor fit] | –

Molecules above with two or more sulfur atoms (5):
Row | SMILES | AC50 [1] | AC50 [2]
10 | O=C(CSC(=S)N1CCCCC1)c1c(F)cccc1F | 20 µM [falling, partial curve] | 35.5 µM [falling, single point]
16 | CNC(=O)CSc1nnc(-c2cccc(S(=O)(=O)N3CCOCC3)c2)n1-c1ccc(F)cc1 | 23.1 µM [falling, partial curve, poor fit] | –
21 | Cc1sc(NC(=O)CN(C)C2CCCCC2)nc1-c1ccc2c(c1)CCN2S(=O)(=O)c1ccccc1 | 1.3 µM [falling, full curve, poor fit] | –
26 | Cc1cc(C)cc(NC(=O)CSc2nc3c(c(=O)n2C)SC(C)C3)c1 (stereo not drawn) | 6.51 µM [falling, single point] | –
42 | CCc1ccc(CNC(=O)CN2C(=O)CSc3ccc(S(=O)(=O)N4CCOCC4)cc32)cc1 | 25.1 µM [rising, single point] | –

Additional results follow.

Row | SMILES | AC50 [1] | AC50 [2]
45 | O=Cc1ccc(OCCCOc2cccc3cccnc23)cc1 | 25.1 µM [falling, single point] | –
46 | Clc1ccc(C[n+]2cc(-c3ccc(Cl)cc3)n3c2CCC3)cc1 | 6.31 µM [falling, partial curve] | –
47 | O=C(O)c1cc([N+](=O)[O-])ccc1NCc1ccccn1 | 13 µM [falling, partial curve] | –
48 | CC(=O)N1c2ccc3ccccc3c2C2C=CCC2C1c1ccc(Br)cc1 (stereo not drawn) | 13 µM [falling, partial curve, poor fit] | –
49 | Nc1cc(=O)[nH]c(SCc2csc(-c3ccccc3)n2)n1 | 9.2 µM [rising, partial curve] | –
50 | Cc1cc(SCC(=O)c2cccs2)n2nc(C)c(-c3ccc(Cl)cc3)c2n1 | 7.31 µM [rising, partial curve, poor fit] | –
51 | CC(C)c1ccc(CNc2ncc(Br)cn2)cc1 | 7.08 µM [rising, full curve, poor fit] | –
52 | CCOC(=O)c1nc2cc3n(c(CC(C)C)c-2c1C)CC(C)=C3C | – | 20.6 µM [rising, single point]
53 | Cc1cccc(C(=O)Nc2cccc(C(=O)N/N=C/c3cccc(C)n3)c2)c1 | 3.16 µM [falling, single point] | –
54 | CCOC(=O)c1cc(-c2ccccc2)n(CCC(=O)Nc2ccc(C(F)(F)F)cc2)c1C | 35.5 µM [falling, single point] | –
55 | O=C(NNc1nc2cc3c(cc2s1)OCO3)c1cccc(F)c1 | 20.6 µM [falling, single point] | –
56 | Cc1nn2c(NCCCn3ccnc3)cc(C(C)C)nc2c1-c1ccccc1 | 35.5 µM [falling, single point] | –
57 | Cc1nn(Cc2ccccc2Cl)c2sc(C(=O)OC3CCCC3=O)cc12 (stereo not drawn) | 3.16 µM [rising, partial curve, poor fit] | –
58 | CCN(C(=O)CSc1nnc(-c2ccco2)n1C)c1c(N)n(Cc2ccccc2)c(=O)[nH]c1=O | 4.11 µM [falling, partial curve, poor fit] | –
59 | [O-]/[N+](=C\c1ccc(F)cc1)c1ccccc1 | 29.1 µM [rising, single point] | –
60 | CC1CCN(S(=O)(=O)c2cccc(C(=O)NC3CCCC3)c2)CC1 | 35.5 µM [falling, partial curve, poor fit] | –
61 | CN(c1ncnc2c1c(-c1ccccc1)cn2-c1ccc(F)cc1)C1CCCCC1 | 35.5 µM [rising, single point] | –
62 | COc1ccc(NC(=O)c2ccccc2O)c(OC)c1 | 3.66 µM [falling, full curve] | –
63 | CC(C)Nc1nc(Oc2ccc(=O)n(-c3ccccc3)n2)nc(N(C)C)n1 | 0.794 µM [rising, full curve, poor fit] | –
64 | O=C1CCCC/C1=C/Nc1cccc(C(F)(F)F)c1 | 17.8 µM [rising, partial curve, poor fit] | –

Reference: PubChem BioAssay AID493014 (National Center for Advancing Translational Sciences (NCATS), 2011)
